Assay results taken from the supplement of paper PMC12823440, “Inhibitors supercharge kinase turnover through native proteolytic circuits” (Nature, 2025).
This is one part of the list. The calls rarely recur for the same compound in another form.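 Kinases, fused to nanoluciferase, were expressed in K562 cells; luminescence was measured every 4 h from 2 to 18 h as percent of control (DMSO = 100%, positive control = 0%). A time point is decreased if signal falls significantly (2 sigma). Hits were called by the authors by a rule that is not shown; the count of time points alone does not decide it.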

target: EGFR_L861Q (UniProt P00533); assay: kinase-Nluc reporter destabilization hit call (1 = scored as downregulated) (binary); higher = compound decreases kinase abundance; settings: K562; 2-18 h

kinase-Nluc reporter destabilization hit call, inactive:
O=C1NC(=O)C(Cc2c[nH]c3c(Cl)cccc23)N1 (stereo not given) [Necroptosis-IN-1] (10 µM) 0
O=C1C=CC2=C3c4cc(O)c(O)cc4CC3(O)COC2=C1O (stereo not given) [Hematein] (10 µM) 0
NC(=O)c1cnc(N[C@@H]2CCCC[C@@H]2N)nc1Nc1cccc(-n2nccn2)c1 (2.5 µM) 0
COc1cc2nc(-c3cc(F)ccc3O)nc(N[C@@H]3CNC[C@H]3C(C)(C)O)c2cc1OC (2.5 µM) 0
CN1CCN(Cc2ccc(-c3cn(C4CCC(O)CC4)c4nc(NCCC5CC5)ncc34)cc2)CC1 (stereo not given) (2.5 µM) 0
O=S(=O)(c1ccc(O)cc1O)N1Cc2cc(O)cc(O)c2C1 (10 µM) 0

target: EGFR_T790M (UniProt P00533); assay: as above; settings: K562; 2-18 h

kinase-Nluc reporter destabilization hit call, inactive:
CC(C)Cn1ncc2cc(Oc3ccc(F)cc3F)c(C(=O)NCCN(C)C)cc21 [p38α inhibitor 1] (10 µM) 0
CNc1cc2c(Nc3cccc(Br)c3)ncnc2cn1 (10 µM) 0
CN1C(=O)[C@@H](NC(=O)c2cc(Cc3ccccc3)on2)COc2ccccc21 (10 µM) 0
CC(C1CC1)n1cnc2c(NCc3cccc(C(F)(F)F)c3)nc(NCCN(C)C)nc21 (stereo not given) (10 µM) 0
Cc1n[nH]c2ncc(C(=O)N3CCC[C@H]3c3ccc(Cl)cc3)cc12 (10 µM) 0
COc1ccc(Br)c(C=O)c1O [6-Bromo-2-hydroxy-3-methoxybenzaldehyde] (10 µM) 0
Oc1ccc(-c2cnc3ccc(NCc4ccco4)nn23)cc1 [IRAK inhibitor 2] (2.5 µM) 0
C[C@H](Nc1cc2c(-c3ccc4c(c3)OCO4)noc2cn1)c1ccccc1 (10 µM) 0
Nc1ccc(C(=O)Nc2cccc(-c3nc(N4CCOCC4)c4oc5ncccc5c4n3)c2)cn1 (10 µM) 0
CCOC(=O)c1c(N2CCc3ccc(OC)cc3C2)oc(C=C2C=Nc3ncccc32)c1O (10 µM) 0
Cc1ncc(-c2cc(F)c(O)c(F)c2)cc1-c1cc(F)c(O)c(F)c1 (10 µM) 0
N=C(NC(=N)N1CCCC1)Nc1ccc(OC(F)(F)F)cc1 (10 µM) 0
CC1(C)CN(C(=O)c2ccc(-c3cccc4nc(NC(=O)C5CC5)nn34)cc2)C1 [Solcitinib] (10 µM) 0
COc1c(O)cc(O)c2c(=O)cc(-c3ccccc3)oc12 [Wogonin] (10 µM) 0
O=C(NC[C@H](O)CO)c1ccncc1Nc1ccc(I)cc1F [Pimasertib] (10 µM) 0
N#Cc1cnc(Nc2cc(NC[C@H]3CNCCO3)c(C(F)(F)F)cn2)cn1 (10 µM) 0
CCNC(=O)Nc1ccc(-c2nc3c(c(N4CCOC[C@@H]4C)n2)CCN(C2COC2)C3)cc1 (2.5 µM) 0
COc1cc2ncnc(Nc3cc(Br)c(O)c(Br)c3)c2cc1OC (2.5 µM) 0
Nc1ccc(-c2nc3ccc(-c4nc5ccc(N)cc5[nH]4)cc3[nH]2)cc1 (10 µM) 0
CCCCC(=O)OCC(=O)[C@]1(O)Cc2c(O)c3c(c(O)c2[C@@H](O[C@H]2C[C@H](NC(=O)C(F)(F)F)[C@H](O)[C@H](C)O2)C1)C(=O)c1c(OC)cccc1C3=O [Valrubicin] (10 µM) 0
CCOC(=O)c1c(Nc2ccccc2Cl)oc(/C=C2\C=Nc3ncccc32)c1O (10 µM) 0
Nc1[nH]nc2nnc(-c3c(-c4ccccc4)nn4ccccc34)cc12 (10 µM) 0
COc1cc2nc(NC3CC3)nc(NC3CCN(C(C)C)CC3)c2cc1OC (10 µM) 0
S=C(NCc1ccc2c(c1)OCO2)N1CCN(c2ncnc3c2oc2ccccc23)CC1 [Amuvatinib] (2.5 µM) 0
CC(=O)O[C@@H]1[C@@H](OC(C)=O)[C@@H](O)[C@H](Oc2c(-c3ccc(O)cc3)oc3cc(O)cc(O)c3c2=O)O[C@H]1C (10 µM) 0
CC1=CC(=O)C(C(C)C)=C/C1=N/OC(=O)c1ccccc1C [Poloxin] (2.5 µM) 0
CO[C@@H]1[C@H](N(C)C(=O)c2ccccc2)C[C@H]2O[C@]1(C)n1c3ccccc3c3c4c(c5c6ccccc6n2c5c31)C(=O)NC4 [Midostaurin] (2.5 µM) 0
Fc1ccc(Cl)cc1-c1nc(Nc2ccncc2)c2nccnc2n1 (10 µM) 0
CN1CCC(Nc2ccc(C(=O)Nc3cc(-c4ccc5c(c4)OCO5)[nH]n3)cc2)CC1 (10 µM) 0
CN1CCC(Nc2nc(Nc3ccc(Oc4ccccc4)cc3)c3c(=O)[nH]cc(Br)c3n2)CC1 (2.5 µM) 0
O=C(COc1ccc(Cl)cc1)NC1CCC(NC(=O)COc2ccc(Cl)cc2)CC1 (stereo not drawn) [ISRIB (trans-isomer)] (10 µM) 0
Cc1ccc(C2CC(=O)NC(SCC(=O)Nc3nccs3)=C2C#N)cc1 (stereo not given) [Necrostatin-34] (10 µM) 0
CCCCNc1ncc(C(=O)NCc2ccc(-n3ccnc3)cc2)c(NC2CCC(O)CC2)n1 (stereo not given) (10 µM) 0
O=C1NC(=O)C(Cc2c[nH]c3c(Cl)cccc23)N1 (stereo not given) [Necroptosis-IN-1] (10 µM) 0
O=C1C=CC2=C3c4cc(O)c(O)cc4CC3(O)COC2=C1O (stereo not given) [Hematein] (10 µM) 0
NC(=O)c1cnc(N[C@@H]2CCCC[C@@H]2N)nc1Nc1cccc(-n2nccn2)c1 (2.5 µM) 0
COc1cc2nc(-c3cc(F)ccc3O)nc(N[C@@H]3CNC[C@H]3C(C)(C)O)c2cc1OC (2.5 µM) 0
CN1CCN(Cc2ccc(-c3cn(C4CCC(O)CC4)c4nc(NCCC5CC5)ncc34)cc2)CC1 (stereo not given) (2.5 µM) 0
O=S(=O)(c1ccc(O)cc1O)N1Cc2cc(O)cc(O)c2C1 (10 µM) 0
